# Measurements reported in PubChem BioAssay AID1671190 (National Center for Advancing Translational Sciences (NCATS), 2021).
# Sequences of proteins named here, by UniProt entry; tags and fusion partners are left off.
# UniProt P18054, whole entry, looked up: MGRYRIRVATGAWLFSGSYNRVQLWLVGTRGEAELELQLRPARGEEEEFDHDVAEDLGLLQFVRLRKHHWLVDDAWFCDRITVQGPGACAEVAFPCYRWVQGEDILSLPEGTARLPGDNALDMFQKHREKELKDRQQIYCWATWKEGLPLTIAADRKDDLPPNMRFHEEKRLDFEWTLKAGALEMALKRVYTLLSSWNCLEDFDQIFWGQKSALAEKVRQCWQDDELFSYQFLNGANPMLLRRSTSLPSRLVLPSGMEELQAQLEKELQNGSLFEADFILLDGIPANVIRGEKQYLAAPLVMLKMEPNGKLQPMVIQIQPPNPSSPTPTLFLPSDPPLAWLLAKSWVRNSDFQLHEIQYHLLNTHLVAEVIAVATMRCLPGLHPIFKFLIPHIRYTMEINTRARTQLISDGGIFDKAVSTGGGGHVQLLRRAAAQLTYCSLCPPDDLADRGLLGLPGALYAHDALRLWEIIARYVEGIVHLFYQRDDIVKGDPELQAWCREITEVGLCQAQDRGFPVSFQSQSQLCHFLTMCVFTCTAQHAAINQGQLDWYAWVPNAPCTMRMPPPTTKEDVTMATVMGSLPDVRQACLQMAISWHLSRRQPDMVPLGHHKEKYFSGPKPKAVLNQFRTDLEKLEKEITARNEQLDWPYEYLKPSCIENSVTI
# The campaign covered roughly 580,000 compounds. About 6,100 (1.1%) were called active. Inconclusive means that the source gave no clear call. Such entries were picked first, then a sample of the others. Calls follow the shape of the dose curve; as a rule, active = well fitted inhibition curve with a large enough effect; inconclusive = small, poorly fitted or top-dose-only effect, or another doubt; inactive = no such curve, though single readings can be large or run the other way. Potencies beside an inconclusive call are fits to weak or partial responses and may not hold up.
# Target: Polyunsaturated fatty acid lipoxygenase ALOX12 (Homo sapiens) (UniProt P18054)
# Experiment: Primary qHTS assay for inhibitors of human arachidonate 12S-lipoxygenase (ALOX12): Round 2
# Conditions: purified 12hLO, xylenol orange hydroperoxide absorbance; activity change, negative = inhibition: at 108 µM (top of the series) unless noted
# Outline: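 Hydroperoxide product was detected by ferrous iron/xylenol orange as the 573 to 405 nm absorbance ratio. Arachidonic acid at 40 uM (final) was turned over for 30 min at room temperature by 150 nM human 12hLO, pH 7.0 Hepes buffer, after 15 min compound preincubation.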
# % is scaled to controls: 0 for no effect and ±100 for the full control effect; potency is read from the fitted curve at half-maximal effect.
Compound,Potency,"activity change, negative = inhibition"
C/C(=N\NC(=O)c1cccc([N+](=O)[O-])c1)c1ccco1,inactive,–
COc1cccc(Nc2nc(-c3ccc4c(c3)CCN4S(C)(=O)=O)cs2)c1,"inconclusive: 44.7 µM [inhibitor, partial curve]",–
CCN(CC)C(=O)c1sc(NC(=O)c2ccncc2)c(C(=O)OC)c1C,inactive,–
CC(C)C(c1ccc(O)cc1)c1ccc(O)cc1,"inconclusive: 50.1 µM [inhibitor, partial curve, poor fit]",–
Cc1ccc(C)c(Nc2nnc(-c3ccc(C)c(S(N)(=O)=O)c3)c3ccccc23)c1,"inconclusive: 100 µM [inhibitor, single point]",–
N#CC(C#N)=NNc1ccc2cn[nH]c2c1,"inconclusive: 3.98 µM [inhibitor, full curve, poor fit]",–
Cc1ccc(NC(=O)c2ccc3c(c2)CCN3S(C)(=O)=O)c(C)c1,"inconclusive: 35.5 µM [inhibitor, single point]",–
C#CCOc1ccc2ccccc2c1/C=C(/C#N)c1ccc(C(=O)O)cc1,"inconclusive: 89.1 µM [inhibitor, partial curve, poor fit]",–
CC(c1ccccc1)C1CC(=O)N(c2cc(Cl)ccn2)C1=O (stereo unspecified),"inconclusive: 89.1 µM [inhibitor, single point]",–
CCCS(=O)(=O)N1CCN(CCCc2ccccc2)CC1,"inconclusive: 1.26 µM [inhibitor, full curve, poor fit]",–
Cc1ccc(-n2ncc3c(N4CCCCCC4)ncnc32)cc1C,"inconclusive: 100 µM [inhibitor, partial curve, poor fit]",–
Cc1ccc(C)c(NC(=O)N2CCCC(Cn3c(C4CC4)nc4cccnc43)C2)c1 (stereo unspecified),inactive,–
CC1=C(C(=O)N2CCOCC2)CC(CC(=O)NCc2cccc3ccccc23)C(=O)N1CCC1=CCCCC1 (stereo unspecified),"inconclusive: 25.1 µM [inhibitor, single point]",–
CCCN1C(CC(C)C)=NS(=O)(=O)c2cc(NC(=O)c3ccco3)ccc21,inactive,–
CN(C)c1ccc(-c2cncnc2NCCN2CCOCC2)cc1,"inconclusive: 44.7 µM [inhibitor, partial curve]",–
CN1CCc2nc3sc(C(=O)c4ccc(Cl)cc4)c(N)c3cc2C1,active: 35.5 µM,–
CCCNC(=O)COC(=O)c1ccc2nc(C)c(C)nc2c1,"inconclusive: 126 µM [inhibitor, single point]",–
O=C(Nc1cccnc1)c1cc(=O)c2ccccc2o1,"inconclusive: 70.8 µM [inhibitor, single point]",–
O=C(CSc1ccc2c(c1)OCCO2)c1c[nH]c2ccccc12,"inconclusive: 25.1 µM [inhibitor, full curve, poor fit]",–
CCCOc1ccccc1-c1nc2n[nH]nc2c(=O)[nH]1,"inconclusive: 5.01 µM [inhibitor, full curve, poor fit]",–
Cc1ccc(CNC(=O)COc2ccc(C)nc2[N+](=O)[O-])cc1,inactive,–
Fc1ccccc1C1c2cccn2CCN1C(=S)Nc1ccc(Br)cc1 (stereo unspecified),"inconclusive: 89.1 µM [inhibitor, partial curve, poor fit]",–

Compound,Potency,"activity change, negative = inhibition"
Cc1c(C(=O)NCc2cccs2)oc2ccc(S(=O)(=O)N3CCOCC3)cc12,inactive,–
COc1cccc(C(=O)NCC(c2ccc3c(c2)OCO3)N2CCN(c3ccc(F)cc3)CC2)c1 (stereo unspecified),inactive,–
O=C(O)COc1cccc(/C=C2/SC(=S)N(Cc3ccccc3)C2=O)c1,"inconclusive: 25.1 µM [inhibitor, partial curve, poor fit]",–
NC(Cc1ccc(C(F)(F)F)cc1)c1csc(Nc2cc(NCc3ccco3)ncn2)n1 (stereo unspecified),"inconclusive: 100 µM [inhibitor, single point]",–
OC(COCc1cccs1)CN1CCN(c2cccc(Cl)c2)CC1 (stereo unspecified),"inconclusive: 17.8 µM [inhibitor, partial curve]",–
CC(C)ON(C(C(=O)NO)C(C)C)S(=O)(=O)c1ccc(-c2ccccc2)cc1 (stereo unspecified),"inconclusive: 2 µM [inhibitor, partial curve, poor fit]",–
O=C(Nc1cccc(Cl)c1)N1CCC(CO)(CCOc2ccccc2)CC1,"inconclusive: 56.2 µM [inhibitor, partial curve, poor fit]",–
O=C(O)c1ccccc1C(=O)Nc1ccc(S(=O)(=O)Nc2ccc(F)cc2)cc1,"inconclusive: 39.8 µM [inhibitor, single point]",–
COc1cccc(NC(=O)COC(=O)c2ccc3ccccc3n2)c1,"inconclusive: 20 µM [inhibitor, partial curve, poor fit]",–
COc1ccccc1NC(=O)N1CCCC1C(=O)Nc1nnc(C(C)C)s1 (stereo unspecified),inactive,–
Cc1ccc(C(=O)Oc2oc(-c3ccco3)nc2C=Nc2ccc(Cl)cc2)cc1,"inconclusive: 8.91 µM [inhibitor, partial curve, poor fit]",–
C/C(=N/OC(=O)c1c(-c2c(Cl)cccc2Cl)noc1C)c1cnccn1,"inconclusive: 63.1 µM [inhibitor, partial curve, poor fit]",–
CC(=O)N1Cc2ccccc2CC2(CCCN(CCc3ccccc3)C2)C1 (stereo unspecified),"inconclusive: 89.1 µM [inhibitor, partial curve]",–
COc1ccc(CNC(=O)c2cc(Cl)ccc2O)cc1OC,inactive,–
Cc1cc(C(=O)Nc2ccc(C)c(S(=O)(=O)N3CCOCC3)c2)c2ccccc2n1,"inconclusive: 112 µM [inhibitor, partial curve, poor fit]",–
COc1cc(NC(=O)CSc2ncnc3sc4c(c23)CCCC4)c(C(=O)O)cc1OC,inactive,–
CCCCOc1ccc(CN2C(=O)C(=O)c3cc(C)ccc32)cc1OC,"inconclusive: 56.2 µM [inhibitor, partial curve, poor fit]",–
COc1ccc(Cc2nnc(NC(=O)Cc3cccs3)s2)cc1OC,"inconclusive: 31.6 µM [inhibitor, partial curve, poor fit]",–
OCc1nc(C2CCNC2)no1 (stereo unspecified),inactive,–
CCN(CC)c1ccc(C=Nc2ccc(S(N)(=O)=O)cc2)cc1,inactive,–
Cn1c(CC(=O)Nc2ccccc2F)nnc1SCC(=O)N1CCOCC1,"inconclusive: 35.5 µM [inhibitor, partial curve, poor fit]",–
CCOc1ccccc1N1CC(c2nc3ccccc3n2CCCCOc2cc(C)ccc2C)CC1=O (stereo unspecified),"inconclusive: 50.1 µM [inhibitor, partial curve, poor fit]",–

Compound,Potency,"activity change, negative = inhibition"
OC[C@@H]1CN(Cc2ccc3c(c2)OCO3)C[C@H](n2cnc3c(NC4CC4)ncnc32)O1,inactive,–
CC1Sc2ccc(C(=O)NO)cc2NC1=O (stereo unspecified),"inconclusive: 35.5 µM [inhibitor, partial curve, poor fit]",–
COCCn1c(N)c(C(=S)NC(=O)c2cccs2)c(=O)[nH]c1=O,"inconclusive: 39.8 µM [inhibitor, partial curve]",–
CS(=O)(=O)c1ccc(C(=O)OCc2nnc(-c3ccccc3)o2)cc1[N+](=O)[O-],inactive,–
CC(C)c1ccc(NC(=O)c2ccccc2Cl)cc1,"inconclusive: 89.1 µM [inhibitor, partial curve, poor fit]",–
COc1ccc(NC(=S)NCc2ccc3c(c2)OCO3)cc1,"inconclusive: 35.5 µM [inhibitor, partial curve, poor fit]",–
CN(Cc1ccccc1)C(=O)COc1ncnc2ccccc12,inactive,–
COc1ccc(-c2c(-c3ccc(OC)c(F)c3)c3ccccc3n2C)cc1,–,inconclusive: -30.7% [inhibitor]
COC(=O)C[C@@H]1CC[C@H](NC(=O)c2ccc3c(c2)OCO3)[C@@H](CO)O1,"inconclusive: 100 µM [inhibitor, partial curve, poor fit]",–
COCCn1c(C)cc(C2=NNC(=Nc3ccccc3F)SC2)c1C,"inconclusive: 39.8 µM [inhibitor, partial curve]",–
CCc1nc2c(OCC(=O)c3ccc(F)cc3)cccn2c1N(C)C(=O)c1cccs1,"inconclusive: 126 µM [inhibitor, single point]",–
COc1ccccc1N1CCN(C(=O)c2ccc([N+](=O)[O-])s2)CC1,inactive,–
COC(=O)C(Cc1ccc(O)cc1)NC(=O)c1ccc2c(c1)OCCO2 (stereo unspecified),"inconclusive: 89.1 µM [inhibitor, single point]",–
Cc1ccccc1NC(=S)NCc1ccc(Cl)cc1,"inconclusive: 56.2 µM [inhibitor, partial curve, poor fit]",–
COc1cc(/C=C(\CC(=O)O)c2nc3ccccc3s2)ccc1OCC(=O)Nc1ccccc1F,"inconclusive: 20 µM [inhibitor, partial curve, poor fit]",–
CCNc1ccccc(C(=O)/C=C/c2ccc3c(c2)OCO3)c1=O,"inconclusive: 4.47 µM [inhibitor, full curve, poor fit]",–
O=C(CCN1C(=O)/C(=C/c2ccccc2F)SC1=S)NCCCN1CCOCC1,inactive,–
Cc1ccc(C(=O)[C@@H]2[C@@H]3CCCN3[C@]3(C(=O)Nc4c(Cl)cccc43)[C@@]23C(=O)Nc2ccccc23)cc1,"inconclusive: 79.4 µM [inhibitor, single point]",–
O=S1OC(c2ccccc2)c2cc(Cl)ccc21 (stereo unspecified),inactive,–
C/C(=N/NC(=O)c1sc(NS(=O)(=O)c2ccc(C)cc2)nc1C)c1sc(N)nc1C,"inconclusive: 5.01 µM [inhibitor, full curve, poor fit]",–
Cc1ccc(NC(=O)c2nc(S(=O)(=O)Cc3ccccc3)ncc2Cl)cc1,inactive,–
FC(F)(F)c1ccc2c(c1)C1C=CCC1C(c1ccncc1)N2 (stereo unspecified),"inconclusive: 10 µM [inhibitor, partial curve, poor fit]",–

# An excerpt from above in order of length of the SMILES, smallest number first.
Compound,Potency,"activity change, negative = inhibition"
N#CC(C#N)=NNc1ccc2cn[nH]c2c1,"inconclusive: 3.98 µM [inhibitor, full curve, poor fit]",–
CC(C)c1ccc(NC(=O)c2ccccc2Cl)cc1,"inconclusive: 89.1 µM [inhibitor, partial curve, poor fit]",–
Cc1c(C(=O)NCc2cccs2)oc2ccc(S(=O)(=O)N3CCOCC3)cc12,inactive,–
COc1cccc(C(=O)NCC(c2ccc3c(c2)OCO3)N2CCN(c3ccc(F)cc3)CC2)c1 (stereo unspecified),inactive,–
